PubChem BioAssay AID1259424 | University of Nebraska Medical Center, 2018

- Test: 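Rank knockdowns across the genome by resemblance to the KSR1 depletion profile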 (primary screen)
- System: human HCT116 colon cancer cells
- Reagents: siRNA pool against human genes, 50 nM
- Measured: 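Log2 levels of six mRNAs (branched-DNA multiplex), adjusted by two reference genes and the non-targeting median, then scored against the average KSR1 knockdown pattern as Pearson r and euclidean distance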
- Scale: mean correlation with KSR1 profile and KSR1 correlation: higher = expression change more like KSR1 knockdown; mean distance from KSR1 profile: higher = expression change less like KSR1 knockdown
This is one part, drawn at random, of about 14,000 reagents tested. 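Higher correlation or smaller distance means closer resemblance to KSR1 loss; control wells, including KSR1 knockdowns, recur on many plates.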 Some reagents were tested in more than one well and are listed for each. No sequences are given here. Not given: the time to read-out.

no.	gene symbol	mean correlation with KSR1 profile	mean distance from KSR1 profile	KSR1 correlation, replicate 1	KSR1 correlation, replicate 2	KSR1 correlation, replicate 3
1	SOX11	-0.146	3.8	0.00673	-0.235	-0.202
2	ACSL6	0.184	1	0.44	0.362	0.0507
3	ACSL6	0.0974	2.32	-0.0957	0.262	0.421
4	NBEAL1	0.365	2.1	0.32	0.0558	0.344
5	AOC3	0.368	2.73	0.37	0.514	0.203
6	MAB21L1	-0.401	1.66	-0.408	-0.499	-0.272
7	CETN3	-0.12	3.51	0.178	-0.33	-0.163
8	NUAK1	0.411	2.24	0.491	0.112	0.214
9	PDZRN3	-0.486	2.09	-0.346	-0.422	-0.447
10	PRNP	0.631	2.6	0.774	0.574	0.599
11	KRTAP5-8	-0.314	3.35	-0.365	-0.0206	-0.209
12	SHCBP1L	0.149	2.62	-0.0664	0.201	0.0751
13	SLBP	0.318	1.67	0.31	-0.0968	0.217
14	TES	-0.219	2.29	-0.0187	-0.414	-0.107
15	HORMAD1	0.74	3.26	0.7	0.734	0.699
16	CD200R1	-0.324	1.66	-0.323	-0.214	-0.293
17	PBX4	0.503	1.23	0.715	0.269	0.533
18	CALM3	-0.0361	3.57	0.0245	-0.0269	-0.334
19	PHLDA1	-0.532	2.27	-0.458	-0.529	-0.387
20	TAP1	-0.466	3.7	-0.479	-0.55	-0.49
21	PCDHGB7	-0.22	2.33	-0.326	-0.346	-0.234
22	ANXA1	-0.139	1.16	-0.338	-0.0231	-0.09
23	ABI3BP	-0.258	2.04	-0.0264	-0.728	-0.0319
24	NSFL1C	0.486	2.45	0.375	0.418	0.427
25	PPP1CB	0.0246	2.06	0.00823	-0.357	0.161
26	ANGPTL3	-0.535	1.23	-0.281	-0.295	-0.732
27	TONSL	0.225	1.26	0.783	0.454	-0.197
28	NCK1	0.00707	0.969	0.079	-0.248	0.401
29	PTPRS	0.0613	1.8	0.158	-0.0944	-0.0884
30	PKN3	0.799	2.85	0.865	0.749	0.633
31	WBSCR23	0.657	1.24	0.698	0.539	0.634
32	VAV1	0.463	2.44	0.62	0.392	0.738
33	MCUB	-0.573	3.28	-0.583	-0.539	-0.392
34	SUPT5H	-0.00953	2.07	-0.0182	-0.125	0.488

Individual results from the entries so far.
For “KSR1 correlation, replicate 1”, CD200R1 has -0.323
For “mean correlation with KSR1 profile”, CETN3 reads -0.12
Result for PBX4 under “KSR1 correlation, replicate 2”: 0.269
Under “mean distance from KSR1 profile”, SLBP reads 1.67
AOC3, mean distance from KSR1 profile: 2.73
